Experimental data: PubChem BioAssay AID652054 (National Center for Advancing Translational Sciences (NCATS), 2013)
Hit rate of the full screen: of about 360,000 compounds, about 9,100 (2.5%) were called active. Inconclusive results, whose numbers are uncertain, are shown with a selection of clear calls. Cut-off read from the data, not from the text of the source: active = max response below about -50%; inconclusive = no clear call, values can overlap the other calls; inactive = above that.

The chains behind the UniProt entries cited, without tags or fusion partners.
UniProt P35462, whole entry, looked up: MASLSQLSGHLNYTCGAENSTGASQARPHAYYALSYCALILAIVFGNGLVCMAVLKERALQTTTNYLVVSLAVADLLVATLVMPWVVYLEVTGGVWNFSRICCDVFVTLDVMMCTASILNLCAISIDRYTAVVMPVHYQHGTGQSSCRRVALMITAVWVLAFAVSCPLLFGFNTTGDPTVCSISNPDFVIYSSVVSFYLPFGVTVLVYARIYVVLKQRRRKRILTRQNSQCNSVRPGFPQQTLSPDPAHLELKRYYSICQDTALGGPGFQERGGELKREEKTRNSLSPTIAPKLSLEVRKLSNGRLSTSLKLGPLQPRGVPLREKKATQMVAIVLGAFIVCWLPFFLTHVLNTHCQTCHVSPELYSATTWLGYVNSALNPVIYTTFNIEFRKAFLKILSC

The molecules below were run against D(3) dopamine receptor (Homo sapiens) (UniProt P35462) (assay: qHTS of D3 Dopamine Receptor Antagonist: qHTS). Settings: D3R cells, DiscoveRx beta-arrestin luminescence, antagonist mode; hits give low values.
How it was run: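 Cells expressing the human receptor were seeded at 1500 cells/well, incubated overnight at 37 degrees C in 5% CO2, then exposed to library compounds with dopamine controls for 90 minutes at 37 degrees C before luminescent detection.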
% is set by controls: 0 for no effect and ±100 for the full control effect.

SMILES | max response, negative = inhibition
COc1cccc(OC)c1OCCN(C)C | inconclusive: -41.3%
CCCC(c1nnnn1C(C)(C)CC)N1CCN(C2CCCC2)CC1 (centres undefined) | inconclusive: -39.6%
CN(C)C(=S)N=Nc1[nH]c2ccccc2c1O | inactive: -29.1%
CSCC[C@H](NC(=O)c1cccc(S(=O)(=O)N2CCCCCC2)c1)c1nc2ccccc2[nH]1 | inconclusive: -38.5%
CCOC(=O)CC1C(=O)NCCN1C(=O)c1ccc(Cl)cc1Cl (centres undefined) | inactive: -2.05%
COc1cc(N2CCCC2)c(OC)cc1/C=C(/C#N)c1cccc(F)c1 | inconclusive: -43.6%
Cc1ccc(-n2cc(CN3CCC(O)(c4ccccn4)CC3)c(-c3ccc(F)cc3)n2)cc1 | inconclusive: -42%
COc1ccc(CCN(C)CCC(=O)Nc2c(C)cc(C)cc2C)cc1OC | inconclusive: -40.7%
O=C(NCCc1ccccc1)c1cccc(NC(=O)C2CCCC2)c1 | inconclusive: -32.8%
Cc1ccc(C23CC4CC(CC(NC(=O)N5CCN(C)CC5)(C4)C2)C3)cc1 | inconclusive: -30.8%
OC1CCN(Cc2ccc3ccccc3c2)CC1 | inconclusive: -30.5%
O=C(Nc1cccc(C(=O)O)c1)/C(=C/c1ccc([N+](=O)[O-])cc1)NC(=O)c1ccccc1 | inactive: -5.51%
C=CCc1cccc(/C=N/NC(=O)c2ccc3nc[nH]c3c2)c1O | inactive: 2.11%
C=C[C@@H]1c2ccccc2N(S(=O)(=O)c2ccc(C)cc2)[C@H](c2ccc(OC(C)=O)cc2)C1(C#N)C#N | inconclusive: -43.3%
O=S(=O)(NCCN1CCOCC1)c1ccc(Cl)c(Cl)c1 | inconclusive: -33%
Cc1ccc(-c2nn(-c3ccccc3)cc2/C=N/NS(=O)(=O)c2ccccc2)cc1 | active: -53.7%
CN1CCN(c2ccc(Cl)cc2NC(=O)c2ccc(S(=O)(=O)N3CCCCCC3)cc2)CC1 | inconclusive: -35.2%
COc1ccc(OC)c(S(=O)(=O)Nc2cc(C(=O)O)ccc2N2CC3CC(C2)c2cccc(=O)n2C3)c1 (centres undefined) | inactive: 0.884%
O=C(NNc1c2ccccc2nc2ccccc12)c1ccc(O)cc1 | active: -64.2%
CC(C)CCNC(=O)c1ccc2c(c1)N(Cc1ccccc1)C(=O)CS2=O (centres undefined) | inconclusive: -35.3%
O=C(COC(=O)c1cccc([N+](=O)[O-])c1)NCc1cccs1 | inactive: -16.1%
Cc1ccc(C(=O)CNc2ccc(Cl)cc2)cc1 | inconclusive: -32.5%
Nc1nonc1/C(=N/O)N1CCN(CCO)CC1 | active: -63.6%
CCCC(=O)OCCNc1cc(Sc2nc3ccccc3[nH]2)c2nonc2c1[N+](=O)[O-] | active: -82.8%

Retrieved by structure from the list above (two):
SMILES | max response, negative = inhibition
CCCC(c1nnnn1C(C)(C)CC)N1CCN(C2CCCC2)CC1 (centres undefined) | inconclusive: -39.6%
O=S(=O)(NCCN1CCOCC1)c1ccc(Cl)c(Cl)c1 | inconclusive: -33%
